From paper PMC12346347
Results are given in words; binding and its absence hold for the method and conditions named. In cells and extracts the contact can be indirect. Some results given as binding are weak or reduced against the parent protein; the word gives no strength. Where a sequence is shown, tags or fusion partners need not be part of it.

Chains of the proteins cited; added tags and fusions are not shown.
UniProt Q15154: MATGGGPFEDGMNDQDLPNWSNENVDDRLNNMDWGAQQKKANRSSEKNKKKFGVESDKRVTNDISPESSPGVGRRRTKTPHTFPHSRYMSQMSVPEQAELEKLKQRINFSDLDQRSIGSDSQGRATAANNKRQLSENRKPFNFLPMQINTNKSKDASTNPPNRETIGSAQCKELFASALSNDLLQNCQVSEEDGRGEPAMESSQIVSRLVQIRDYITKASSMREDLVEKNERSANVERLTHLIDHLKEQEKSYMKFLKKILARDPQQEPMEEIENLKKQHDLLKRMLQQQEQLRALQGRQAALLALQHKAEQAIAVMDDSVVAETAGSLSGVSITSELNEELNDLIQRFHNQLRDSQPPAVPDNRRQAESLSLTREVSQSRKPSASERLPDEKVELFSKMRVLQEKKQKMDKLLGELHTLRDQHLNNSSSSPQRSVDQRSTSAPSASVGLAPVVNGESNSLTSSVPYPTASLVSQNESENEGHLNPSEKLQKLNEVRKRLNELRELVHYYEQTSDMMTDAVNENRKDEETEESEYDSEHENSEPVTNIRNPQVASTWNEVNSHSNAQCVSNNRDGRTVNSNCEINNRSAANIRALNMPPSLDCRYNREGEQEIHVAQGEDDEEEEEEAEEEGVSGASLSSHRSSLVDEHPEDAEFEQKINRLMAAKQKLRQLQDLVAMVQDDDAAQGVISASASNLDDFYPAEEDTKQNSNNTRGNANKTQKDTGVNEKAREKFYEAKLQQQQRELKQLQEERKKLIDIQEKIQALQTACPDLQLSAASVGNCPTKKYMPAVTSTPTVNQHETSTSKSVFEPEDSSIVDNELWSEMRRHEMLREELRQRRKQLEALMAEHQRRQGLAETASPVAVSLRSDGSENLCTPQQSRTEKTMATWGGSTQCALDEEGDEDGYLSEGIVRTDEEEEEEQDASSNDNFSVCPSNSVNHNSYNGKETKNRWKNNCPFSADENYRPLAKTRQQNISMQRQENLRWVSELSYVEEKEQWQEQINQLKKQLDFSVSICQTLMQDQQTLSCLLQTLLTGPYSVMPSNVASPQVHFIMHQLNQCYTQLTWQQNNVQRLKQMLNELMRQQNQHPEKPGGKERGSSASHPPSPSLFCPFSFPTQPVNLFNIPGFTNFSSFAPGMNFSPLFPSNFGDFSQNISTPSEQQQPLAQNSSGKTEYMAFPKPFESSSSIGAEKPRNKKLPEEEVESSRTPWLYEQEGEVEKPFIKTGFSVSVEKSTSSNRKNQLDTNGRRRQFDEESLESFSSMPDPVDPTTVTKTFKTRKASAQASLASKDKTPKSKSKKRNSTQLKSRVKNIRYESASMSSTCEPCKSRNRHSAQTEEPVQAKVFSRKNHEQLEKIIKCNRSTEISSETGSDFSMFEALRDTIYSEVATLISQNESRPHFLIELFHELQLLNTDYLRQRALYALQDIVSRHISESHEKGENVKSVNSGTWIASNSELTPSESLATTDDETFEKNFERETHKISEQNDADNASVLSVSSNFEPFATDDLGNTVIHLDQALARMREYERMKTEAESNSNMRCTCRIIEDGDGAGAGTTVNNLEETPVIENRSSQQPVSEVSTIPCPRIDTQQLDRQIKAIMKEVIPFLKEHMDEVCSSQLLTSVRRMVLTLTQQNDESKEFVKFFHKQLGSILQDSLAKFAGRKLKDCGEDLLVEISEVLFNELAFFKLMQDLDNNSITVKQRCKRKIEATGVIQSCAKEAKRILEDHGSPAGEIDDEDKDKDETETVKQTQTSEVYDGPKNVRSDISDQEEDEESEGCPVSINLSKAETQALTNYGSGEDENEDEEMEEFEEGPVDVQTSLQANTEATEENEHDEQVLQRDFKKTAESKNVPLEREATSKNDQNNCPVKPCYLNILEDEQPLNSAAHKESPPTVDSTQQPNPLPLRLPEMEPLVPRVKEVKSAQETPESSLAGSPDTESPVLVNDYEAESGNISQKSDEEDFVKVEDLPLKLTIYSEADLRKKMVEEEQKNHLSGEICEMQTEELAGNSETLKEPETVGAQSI

Assays:
[1] = target: T1, Flag-tagged hSDCCAG8-CC5–7 (human) (UniProt Q86SQ7); experiment: co-IP; anti-Flag magnetic beads on lysates of HEK293T cells expressing Flag-tagged hSDCCAG8 constructs; endogenous PCM1 detected by Western blot; lysis buffer 0.2% Triton-X100, 0.05 mmol/L DTT; overnight at 4 °C; 5 washes with TBS
T1 sequence: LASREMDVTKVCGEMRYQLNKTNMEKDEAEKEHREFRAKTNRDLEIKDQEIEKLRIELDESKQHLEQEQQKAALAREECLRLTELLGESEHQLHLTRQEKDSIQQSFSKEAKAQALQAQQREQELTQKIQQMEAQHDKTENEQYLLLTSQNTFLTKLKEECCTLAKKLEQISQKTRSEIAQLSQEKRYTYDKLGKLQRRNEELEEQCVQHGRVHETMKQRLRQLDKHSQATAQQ

[2] = target: T2, Flag-tagged full-length human SDCCAG8 (human) (UniProt Q86SQ7); experiment: as above
T2 sequence: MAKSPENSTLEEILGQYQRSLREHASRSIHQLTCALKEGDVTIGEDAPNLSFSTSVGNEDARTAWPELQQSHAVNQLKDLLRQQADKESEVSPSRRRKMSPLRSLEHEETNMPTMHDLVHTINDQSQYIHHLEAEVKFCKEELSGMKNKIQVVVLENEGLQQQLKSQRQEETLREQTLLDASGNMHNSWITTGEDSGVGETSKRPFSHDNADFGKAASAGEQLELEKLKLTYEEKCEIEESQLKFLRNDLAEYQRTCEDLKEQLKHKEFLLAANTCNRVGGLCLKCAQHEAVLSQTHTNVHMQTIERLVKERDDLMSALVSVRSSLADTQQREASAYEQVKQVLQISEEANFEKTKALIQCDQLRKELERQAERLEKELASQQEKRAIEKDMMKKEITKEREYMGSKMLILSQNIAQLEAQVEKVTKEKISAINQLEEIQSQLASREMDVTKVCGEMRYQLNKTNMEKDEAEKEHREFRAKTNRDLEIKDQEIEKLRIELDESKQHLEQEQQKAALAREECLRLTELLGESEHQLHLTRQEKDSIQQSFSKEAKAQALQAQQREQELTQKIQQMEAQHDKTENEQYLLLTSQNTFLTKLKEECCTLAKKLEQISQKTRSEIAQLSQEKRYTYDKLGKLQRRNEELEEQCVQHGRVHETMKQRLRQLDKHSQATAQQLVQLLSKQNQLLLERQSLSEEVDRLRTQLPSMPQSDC

binding [2]: binds
Substance: pericentriolar material 1 (PCM1), endogenous in HEK293T cells (from UniProt Q15154 1-2024)
binding [1]: binds
